What all share (assay): tandem affinity co-purification (HisTrap, Strep-Tactin) and SEC; condensin subunits overexpressed together in S. cerevisiae; HisTrap on Brn1-His12-HA3, Strep-Tactin on Smc4-StrepII3 (wash with 500 mM NaCl), Superose 6; SDS-PAGE and Coomassie staining
The target of assay [1] is T1, Sc Brn1-His12-HA3 (S. cerevisiae) (UniProt P38170).
T1 sequence: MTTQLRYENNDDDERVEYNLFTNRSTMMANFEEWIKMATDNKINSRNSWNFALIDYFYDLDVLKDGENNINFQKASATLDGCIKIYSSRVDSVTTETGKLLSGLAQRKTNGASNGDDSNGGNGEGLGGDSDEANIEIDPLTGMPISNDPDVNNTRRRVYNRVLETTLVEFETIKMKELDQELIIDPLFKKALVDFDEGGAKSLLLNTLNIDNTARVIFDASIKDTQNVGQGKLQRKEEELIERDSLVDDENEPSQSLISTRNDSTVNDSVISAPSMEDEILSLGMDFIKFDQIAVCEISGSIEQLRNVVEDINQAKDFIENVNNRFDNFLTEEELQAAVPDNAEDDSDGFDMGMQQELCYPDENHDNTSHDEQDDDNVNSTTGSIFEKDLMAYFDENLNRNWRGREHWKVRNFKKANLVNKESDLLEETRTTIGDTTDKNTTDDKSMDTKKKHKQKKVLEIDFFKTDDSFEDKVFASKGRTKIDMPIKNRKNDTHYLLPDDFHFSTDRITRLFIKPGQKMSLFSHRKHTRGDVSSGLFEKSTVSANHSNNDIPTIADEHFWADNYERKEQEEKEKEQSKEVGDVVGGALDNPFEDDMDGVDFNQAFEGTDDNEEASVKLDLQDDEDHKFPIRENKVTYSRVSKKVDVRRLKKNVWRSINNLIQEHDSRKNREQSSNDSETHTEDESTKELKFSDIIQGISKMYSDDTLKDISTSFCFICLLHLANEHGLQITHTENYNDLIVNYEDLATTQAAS

Assay [2] deals with T2, Sc Brn1_(BC1/2)-His12-HA3 (S. cerevisiae) (UniProt P38170).
T2 sequence: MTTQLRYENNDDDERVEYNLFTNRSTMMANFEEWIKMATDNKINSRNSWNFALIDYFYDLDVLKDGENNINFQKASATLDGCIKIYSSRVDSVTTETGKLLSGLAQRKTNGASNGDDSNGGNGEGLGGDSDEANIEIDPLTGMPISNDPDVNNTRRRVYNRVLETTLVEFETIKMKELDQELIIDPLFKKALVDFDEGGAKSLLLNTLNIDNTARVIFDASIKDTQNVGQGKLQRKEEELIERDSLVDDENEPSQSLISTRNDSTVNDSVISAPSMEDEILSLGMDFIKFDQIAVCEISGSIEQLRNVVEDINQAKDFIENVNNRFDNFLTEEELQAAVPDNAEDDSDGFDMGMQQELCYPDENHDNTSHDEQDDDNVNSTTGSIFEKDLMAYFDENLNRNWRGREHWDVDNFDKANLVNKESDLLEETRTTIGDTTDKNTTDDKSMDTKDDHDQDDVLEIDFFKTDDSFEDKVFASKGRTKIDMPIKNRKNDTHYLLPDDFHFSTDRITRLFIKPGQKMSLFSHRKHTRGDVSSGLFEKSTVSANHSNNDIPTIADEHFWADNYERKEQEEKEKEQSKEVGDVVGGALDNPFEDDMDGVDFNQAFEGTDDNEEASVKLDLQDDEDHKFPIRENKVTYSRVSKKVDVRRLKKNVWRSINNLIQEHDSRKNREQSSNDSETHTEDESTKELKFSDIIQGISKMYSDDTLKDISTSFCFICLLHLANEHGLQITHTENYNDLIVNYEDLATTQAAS

In assay [3] the target is T3, Sc Brn1ΦD-His12-HA3 (S. cerevisiae) (UniProt P38170).
T3 sequence: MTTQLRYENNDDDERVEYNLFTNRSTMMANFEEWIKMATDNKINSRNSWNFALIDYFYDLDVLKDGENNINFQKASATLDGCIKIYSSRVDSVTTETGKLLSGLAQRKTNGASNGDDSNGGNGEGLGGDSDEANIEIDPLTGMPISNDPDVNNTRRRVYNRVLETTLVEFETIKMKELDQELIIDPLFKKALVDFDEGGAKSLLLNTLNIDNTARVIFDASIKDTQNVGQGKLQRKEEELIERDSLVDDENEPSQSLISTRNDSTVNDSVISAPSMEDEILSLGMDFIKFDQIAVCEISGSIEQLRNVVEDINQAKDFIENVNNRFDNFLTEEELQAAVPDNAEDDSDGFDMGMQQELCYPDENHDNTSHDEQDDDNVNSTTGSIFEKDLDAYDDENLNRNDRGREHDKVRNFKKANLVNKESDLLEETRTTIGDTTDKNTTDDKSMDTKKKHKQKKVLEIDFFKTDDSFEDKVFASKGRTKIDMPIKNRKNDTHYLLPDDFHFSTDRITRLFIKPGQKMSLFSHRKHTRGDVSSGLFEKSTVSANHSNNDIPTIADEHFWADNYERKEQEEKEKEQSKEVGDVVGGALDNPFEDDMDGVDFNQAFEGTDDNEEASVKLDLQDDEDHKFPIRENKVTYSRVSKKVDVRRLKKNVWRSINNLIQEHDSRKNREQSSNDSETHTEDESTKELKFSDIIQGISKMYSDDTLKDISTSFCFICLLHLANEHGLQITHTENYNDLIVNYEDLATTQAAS

The results in this text go back to article PMC5651216, “Structural Basis for a Safety-Belt Mechanism That Anchors Condensin to Chromosomes”.

No constants are given. Whether binding was seen depends on the method and setting. Some entries that bind do so weakly or less than the wild type. Tags and fused reporters may be left off the sequences shown.

B1: Sc Smc2 (protein, UniProt P38989 1-1170)
chain: MKVEELIIDGFKSYATRTVITDWDPQFNAITGLNGSGKSNILDAICFVLGIASMSTVRASSLQDLIYKRGQAGVTKASVTIVFDNTDKSNSPIGFTNSPQISVTRQVVLGGTSKYLINGHRAPQQSVLQLFQSVQLNINNPNFLIMQGKITKVLNMKPSEILSLIEEAAGTKMFEDRREKAERTMSKKETKLQENRTLLTEEIEPKLEKLRNEKRMFLEFQSTQTDLEKTERIVVSYEYYNIKHKHTSIRETLENGETRMKMLNEFVKKTSEEIDSLNEDVEEIKLQKEKELHKEGTISKLENKENGLLNEISRLKTSLSIKVENLNDTTEKSKALESEIASSSAKLIEKKSAYANTEKDYKMVQEQLSKQRDLYKRKEELVSTLTTGISSTGAADGGYNAQLAKAKTELNEVSLAIKKSSMKMELLKKELLTIEPKLKEATKDNELNVKHVKQCQETCDKLRARLVEYGFDPSRIKDLKQREDKLKSHYYQTCKNSEYLKRRVTNLEFNYTKPYPNFEASFVHGVVGQLFQIDNDNIRYATALQTCAGGRLFNVVVQDSQTATQLLERGRLRKRVTIIPLDKIYTRPISSQVLDLAKKIAPGKVELAINLIRFDESITKAMEFIFGNSLICEDPETAKKITFHPKIRARSITLQGDVYDPEGTLSGGSRNTSESLLVDIQKYNQIQKQIETIQADLNHVTEELQTQYATSQKTKTIQSDLNLSLHKLDLAKRNLDANPSSQIIARNEEILRDIGECENEIKTKQMSLKKCQEEVSTIEKDMKEYDSDKGSKLNELKKELKLLAKELEEQESESERKYDLFQNLELETEQLSSELDSNKTLLHNHLKSIESLKLENSDLEGKIRGVEDDLVTVQTELNEEKKRLMDIDDELNELETLIKKKQDEKKSSELELQKLVHDLNKYKSNTNNMEKIIEDLRQKHEFLEDFDLVRNIVKQNEGIDLDTYRERSKQLNEKFQELRKKVNPNIMNMIENVEKKEAALKTMIKTIEKDKMKIQETISKLNEYKRETLVKTWEKVTLDFGNIFADLLPNSFAKLVPCEGKDVTQGLEVKVKLGNIWKESLIELSGGQRSLIALSLIMALLQFRPAPMYILDEVDAALDLSHTQNIGHLIKTRFKGSQFIVVSLKEGMFANANRVFRTRFQDGTSVVSIM
With B1, the binding entry in assay [1], in assay [2] and in assay [3] was “binds” throughout.

B2: Sc Smc2_(Q147L) (protein, UniProt P38989 1-1170)
chain: MKVEELIIDGFKSYATRTVITDWDPQFNAITGLNGSGKSNILDAICFVLGIASMSTVRASSLQDLIYKRGQAGVTKASVTIVFDNTDKSNSPIGFTNSPQISVTRQVVLGGTSKYLINGHRAPQQSVLQLFQSVQLNINNPNFLIMLGKITKVLNMKPSEILSLIEEAAGTKMFEDRREKAERTMSKKETKLQENRTLLTEEIEPKLEKLRNEKRMFLEFQSTQTDLEKTERIVVSYEYYNIKHKHTSIRETLENGETRMKMLNEFVKKTSEEIDSLNEDVEEIKLQKEKELHKEGTISKLENKENGLLNEISRLKTSLSIKVENLNDTTEKSKALESEIASSSAKLIEKKSAYANTEKDYKMVQEQLSKQRDLYKRKEELVSTLTTGISSTGAADGGYNAQLAKAKTELNEVSLAIKKSSMKMELLKKELLTIEPKLKEATKDNELNVKHVKQCQETCDKLRARLVEYGFDPSRIKDLKQREDKLKSHYYQTCKNSEYLKRRVTNLEFNYTKPYPNFEASFVHGVVGQLFQIDNDNIRYATALQTCAGGRLFNVVVQDSQTATQLLERGRLRKRVTIIPLDKIYTRPISSQVLDLAKKIAPGKVELAINLIRFDESITKAMEFIFGNSLICEDPETAKKITFHPKIRARSITLQGDVYDPEGTLSGGSRNTSESLLVDIQKYNQIQKQIETIQADLNHVTEELQTQYATSQKTKTIQSDLNLSLHKLDLAKRNLDANPSSQIIARNEEILRDIGECENEIKTKQMSLKKCQEEVSTIEKDMKEYDSDKGSKLNELKKELKLLAKELEEQESESERKYDLFQNLELETEQLSSELDSNKTLLHNHLKSIESLKLENSDLEGKIRGVEDDLVTVQTELNEEKKRLMDIDDELNELETLIKKKQDEKKSSELELQKLVHDLNKYKSNTNNMEKIIEDLRQKHEFLEDFDLVRNIVKQNEGIDLDTYRERSKQLNEKFQELRKKVNPNIMNMIENVEKKEAALKTMIKTIEKDKMKIQETISKLNEYKRETLVKTWEKVTLDFGNIFADLLPNSFAKLVPCEGKDVTQGLEVKVKLGNIWKESLIELSGGQRSLIALSLIMALLQFRPAPMYILDEVDAALDLSHTQNIGHLIKTRFKGSQFIVVSLKEGMFANANRVFRTRFQDGTSVVSIM
B2: the binding result in assay [1] was “binds”.

B3: Sc Smc4_(Q302L)-StrepII3 (protein, UniProt Q12267 1-1418)
chain: MSDSPLSKRQKRKSAQEPELSLDQGDAEEDSQVENRVNLSENTPEPDLPALEASYSKSYTPRKLVLSSGENRYAFSQPTNSTTTSLHVPNLQPPKTSSRGRDHKSYSQSPPRSPGRSPTRRLELLQLSPVKNSRVELQKIYDRHQSSSKQQSRLFINELVLENFKSYAGKQVVGPFHTSFSAVVGPNGSGKSNVIDSMLFVFGFRANKMRQDRLSDLIHKSEAFPSLQSCSVAVHFQYVIDESSGTSRIDEEKPGLIITRKAFKNNSSKYYINEKESSYTEVTKLLKNEGIDLDHKRFLILLGEVENIAQMKPKAEKESDDGLLEYLEDIIGTANYKPLIEERMGQIENLNEVCLEKENRFEIVDREKNSLESGKETALEFLEKEKQLTLLRSKLFQFKLLQSNSKLASTLEKISSSNKDLEDEKMKFQESLKKVDEIKAQRKEIKDRISSCSSKEKTLVLERRELEGTRVSLEERTKNLVSKMEKAEKTLKSTKHSISEAENMLEELRGQQTEHETEIKDLTQLLEKERSILDDIKLSLKDKTKNISAEIIRHEKELEPWDLQLQEKESQIQLAESELSLLEETQAKLKKNVETLEEKILAKKTHKQELQDLILDLKKKLNSLKDERSQGEKNFTSAHLKLKEMQKVLNAHRQRAMEARSSLSKAQNKSKVLTALSRLQKSGRINGFHGRLGDLGVIDDSFDVAISTACPRLDDVVVDTVECAQHCIDYLRKNKLGYARFILLDRLRQFNLQPISTPENVPRLFDLVKPKNPKFSNAFYSVLRDTLVAQNLKQANNVAYGKKRFRVVTVDGKLIDISGTMSGGGNHVAKGLMKLGTNQSDKVDDYTPEEVDKIERELSERENNFRVASDTVHEMEEELKKLRDHEPDLESQISKAEMEADSLASELTLAEQQVKEAEMAYVKAVSDKAQLNVVMKNLERLRGEYNDLQSETKTKKEKIKGLQDEIMKIGGIKLQMQNSKVESVCQKLDILVAKLKKVKSASKKSGGDVVKFQKLLQNSERDVELSSDELKVIEEQLKHTKLALAENDTNMNETLNLKVELKEQSEQLKEQMEDMEESINEFKSIEIEMKNKLEKLNSLLTYIKSEITQQEKGLNELSIRDVTHTLGMLDDNKMDSVKEDVKNNQELDQEYRSCETQDESEIKDAETSCDNYHPMNIDETSDEVSRGIPRLSEDELRELDVELIESKINELSYYVEETNVDIGVLEEYARRLAEFKRRKLDLNNAVQKRDEVKEQLGILKKKRFDEFMAGFNIISMTLKEMYQMITMGGNAELELVDSLDPFSEGVTFSVMPPKKSWRNITNLSGGEKTLSSLALVFALHKYKPTPLYVMDEIDAALDFRNVSIVANYIKERTKNAQFIVISLRNNMFELAQQLVGVYKRDNRTKSTTIKNIDILNRT
As for B3, the binding result in assay [1] is given as “binds”.
